# Counter-ions that a name gives are not always drawn. Some of the results follow. The data scatter; read single values as rough.
# Tested on: Peyronie's disease tunica albuginea primary fibroblasts
# Experiment: cell viability (DRAQ5 nuclear stain) relative to TGF-beta1-only control; higher = more viable cells
# Conditions: 10 µM; TGF-beta1 10 ng/mL; 72 h
row,Structure (SMILES),cell viability
1,CC[C@H]1OC(=O)C[C@@H](O)[C@H](C)[C@@H](O[C@@H]2O[C@H](C)[C@@H](O)[C@H](N(C)C)[C@H]2O)[C@@H](CCN2C[C@H](C)C[C@H](C)C2)C[C@@H](C)C(=O)/C=C/C(C)=C/[C@@H]1CO[C@@H]1O[C@H](C)[C@@H](O)[C@@H](OC)[C@H]1OC [Tilmicosin phosphate],92.3%
2,CC[C@H]1OC(=O)C[C@@H](O)[C@H](C)[C@@H](O[C@@H]2O[C@H](C)[C@@H](O)[C@H](N(C)C)[C@H]2O)[C@@H](CCN2C[C@H](C)C[C@H](C)C2)C[C@@H](C)C(=O)/C=C/C(C)=C/[C@@H]1CO[C@@H]1O[C@H](C)[C@@H](O)[C@@H](OC)[C@H]1OC [Tilmicosin],25.3%
3,CCCCCC(=O)O[C@]1(C(C)=O)CC[C@H]2[C@@H]3CCC4=CC(=O)CC[C@]4(C)[C@H]3CC[C@@]21C [Hydroxyprogesterone caproate],84%
4,CC1(C)C[C@@H]1C(=O)N/C(=C\CCCCSC[C@H](N)C(=O)O)C(=O)O [Cilastatin],100%
5,CCCCCNC(=N)N/N=C/c1c[nH]c2ccc(OC)cc12 [Tegaserod Maleate],59.7%
6,NS(=O)(=O)c1cc(Cl)c(Cl)c(S(N)(=O)=O)c1 [Dichlorphenamide (Diclofenamide)],78%
7,COc1c(C)c2c(c(O)c1C/C=C(\C)CCC(=O)O)C(=O)OC2 [Mycophenolic acid],59.3%
8,Cc1onc(-c2c(F)cccc2Cl)c1C(=O)N[C@@H]1C(=O)N2[C@@H]1SC(C)(C)[C@@H]2C(=O)O [Flucloxacillin sodium],98.6%
9,C[C@H](Cc1cc2c(c(C(N)=O)c1)N(CCCO)CC2)NCCOc1ccccc1OCC(F)(F)F [Silodosin],69.8%
10,CCCC(CCC)C(=O)O[C@H]1C[C@H]2CC[C@@H](C1)[N+]2(C)C [Anisotropine Methylbromide],103%
11,O=C(NCCN1CCOCC1)c1ccc(Cl)cc1,90.2%
12,CN1C(=O)OC(C)(C)C1=O [Trimethadione],90.6%
13,CC(=O)CCCCn1c(=O)c2c(ncn2C)n(C)c1=O [Pentoxifylline],85.4%
14,Nc1c(CC(=O)O)cccc1C(=O)c1ccc(Br)cc1 [Bromfenac Sodium],82.5%
15,CC(C)(C)c1nc(-c2cccc(NS(=O)(=O)c3c(F)cccc3F)c2F)c(-c2ccnc(N)n2)s1 [Dabrafenib Mesylate],127%
16,CC(C)(C)c1nc(-c2cccc(NS(=O)(=O)c3c(F)cccc3F)c2F)c(-c2ccnc(N)n2)s1,136%
17,C[C@H]1O[C@@H](n2cc(F)c(=O)[nH]c2=O)[C@H](O)[C@@H]1O [Doxifluridine],84.7%
18,CCOC(=O)[C@H](CCc1ccccc1)N[C@@H](C)C(=O)N(CC(=O)O)C1Cc2ccccc2C1 [Delapril Hydrochloride],97.5%
19,C[C@H](Cn1cnc2c(N)ncnc21)OCP(=O)(O)O [Tenofovir],96.3%
20,CCCCNc1cc(C(=O)O)cc(S(N)(=O)=O)c1Oc1ccccc1 [Bumetanide],89.8%
21,Cn1cc(C(=O)[C@@H]2CCc3[nH]cnc3C2)c2ccccc21 [Ramosetron Hydrochloride],91%

# Taken from above.
# CCCCNc1cc(C(=O)O)cc(S(N)(=O)=O)c1Oc1ccccc1 [Bumetanide] | cell viability: 89.8%
# CC(C)(C)c1nc(-c2cccc(NS(=O)(=O)c3c(F)cccc3F)c2F)c(-c2ccnc(N)n2)s1 | cell viability: 136%
# CC1(C)C[C@@H]1C(=O)N/C(=C\CCCCSC[C@H](N)C(=O)O)C(=O)O [Cilastatin] | cell viability: 100%
# CCCCCNC(=N)N/N=C/c1c[nH]c2ccc(OC)cc12 [Tegaserod Maleate] | cell viability: 59.7%

# (cont.)

row,Structure (SMILES),cell viability
1,CC(C)(C)c1ccc(C(=O)CCCN2CCC(OC(c3ccccc3)c3ccccc3)CC2)cc1 [Ebastine],101%
2,O=c1ccn([C@@H]2O[C@H](CO)[C@@H](O)[C@H]2O)c(=O)[nH]1 [Uridine],97.3%
3,[O-][n+]1cccc(CO)c1 [Mepiroxol],99.3%
4,COc1ccc(C[C@H](N)C(=O)N[C@H]2[C@@H](O)[C@H](n3cnc4c(N(C)C)ncnc43)O[C@@H]2CO)cc1 [Puromycin 2HCl],23.4%
5,Cc1ccnc(NS(=O)(=O)c2ccc(N)cc2)n1 [Sulfamerazine],96.1%
6,CCC[S+]([O-])c1ccc2[nH]c(NC(=O)OC)nc2c1 (stereo unspecified) [Albendazole Oxide],81.8%
7,NC(=O)OCC(COC(N)=O)c1ccccc1 [Felbamate],86.3%
8,COC(=O)N[C@H](C(=O)N[C@@H](Cc1ccccc1)[C@@H](O)CN(Cc1ccc(-c2ccccn2)cc1)NC(=O)[C@@H](NC(=O)OC)C(C)(C)C)C(C)(C)C [Atazanavir],92.1%
9,COC(=O)N[C@H](C(=O)N[C@@H](Cc1ccccc1)[C@@H](O)CN(Cc1ccc(-c2ccccn2)cc1)NC(=O)[C@@H](NC(=O)OC)C(C)(C)C)C(C)(C)C [Atazanavir Sulfate],94.8%
10,N.N.O=C([O-])C[O-].[Pt+2] [Nedaplatin],82.4%
11,NCCCC(O)(P(=O)(O)O)P(=O)(O)O [Alendronate sodium trihydrate],97.1%
12,CNC[C@H](O)[C@@H](O)[C@H](O)[C@H](O)CO [Meglumine],97.1%
13,CN(C)CCn1nnnc1SCC1=C(C(=O)O)N2C(=O)[C@@H](NC(=O)Cc3csc(N)n3)[C@H]2SC1 [Cefotiam hydrochloride],103%
14,COc1cc(C2Oc3cc([C@H]4Oc5cc(O)cc(O)c5C(=O)[C@@H]4O)ccc3OC2CO)ccc1O (stereo partly specified) [Silibinin],85.4%
15,C[C@]1(c2nc3c(C(N)=O)cccc3[nH]2)CCCN1 [Veliparib (ABT-888)],92.6%
16,CC(=O)N[C@@H](CS)C(=O)O [Acetylcysteine],87%
17,CC(=O)O[C@H]1C[C@@]2(C)[C@@H](C[C@@H](O)[C@H]3[C@@]4(C)CC[C@@H](O)[C@@H](C)[C@@H]4CC[C@@]32C)/C1=C(\CCC=C(C)C)C(=O)O [Fusidate Sodium],90.4%
18,C[C@@H](c1nc(-c2ccc(C#N)cc2)cs1)[C@](O)(Cn1cncn1)c1cc(F)ccc1F [Isavuconazole],89.4%
19,CCN(CC)CCOC(=O)c1ccc(N)cc1 [Procaine],86.4%
20,CCN(CC)CCOC(=O)c1ccc(N)cc1 [Procaine HCl],86.1%
21,CC[C@H](C)C(=O)O[C@H]1C[C@@H](C)C=C2C=C[C@H](C)[C@H](CC[C@@H]3C[C@@H](O)CC(=O)O3)[C@H]21 [Lovastatin],71.1%

row,Structure (SMILES),cell viability
1,Clc1ccc(C(Cn2ccnc2)OCc2ccc(Sc3ccccc3)cc2)c(Cl)c1 (stereo unspecified) [Fenticonazole Nitrate],89.1%
2,O=c1sn(-c2cccc3ccccc23)c(=O)n1Cc1ccccc1 [Tideglusib],90.4%
3,CN1CC(O)C2=C/C(=N/NC(N)=O)C(=O)C=C21 (stereo unspecified) [Carbazochrome],94.1%
4,Nc1c2c(nc3ccccc13)CCCC2 [Tacrine HCl],84.3%
5,CCCCC(CC)COC(=O)C(C#N)=C(c1ccccc1)c1ccccc1 (stereo unspecified) [Octocrylene],91.8%
6,CCN(CC)C(=S)SSC(=S)N(CC)CC [Disulfiram],92.9%
7,COc1cc2/c(=N/c3ccc(Br)cc3F)nc[nH]c2cc1OCC1CCN(C)CC1 [Vandetanib (ZD6474)],92.3%
8,CC1(C)O[C@@H]2C[C@H]3[C@@H]4CCC5=CC(=O)C=C[C@]5(C)[C@H]4[C@@H](O)C[C@]3(C)[C@]2(C(=O)CO)O1 [Desonide],64.9%
9,O=C(O)c1ccc2c(c1)nc(Nc1cccc(Cl)c1)c1ccncc12 [Silmitasertib (CX-4945)],101%
10,"O=C(CCCCCCC(=O)Nc1ccccc1)NO [Vorinostat (SAHA, MK0683)]",69.4%
11,CC[C@H]1OC(=O)C[C@@H](O)[C@H](C)[C@@H](O[C@@H]2O[C@H](C)[C@@H](O[C@H]3C[C@@](C)(O)[C@@H](O)[C@H](C)O3)[C@H](N(C)C)[C@H]2O)[C@@H](CC=O)C[C@@H](C)C(=O)/C=C/C(C)=C/[C@@H]1CO[C@@H]1O[C@H](C)[C@@H](O)[C@@H](OC)[C@H]1OC [Tylosin tartrate],92.1%
12,NC[C@H]1O[C@H](O[C@H]2[C@H](O)[C@@H](O[C@H]3O[C@H](CO)[C@@H](O)[C@H](N)[C@H]3O)[C@H](N)C[C@@H]2N)[C@H](O)[C@@H](O)[C@@H]1O [Kanamycin sulfate],96.8%
13,C[C@H](Oc1ccc(S(C)(=O)=O)cc1C(=O)N1CCN(c2ncc(C(F)(F)F)cc2F)CC1)C(F)(F)F [Bitopertin],87%
14,COC(=O)N[C@H](C(=O)N1CCC[C@H]1c1nc(-c2ccc3c(c2)O[C@@H](c2ccccc2)n2c-3cc3cc(-c4c[nH]c([C@@H]5CCCN5C(=O)[C@@H](NC(=O)OC)C(C)C)n4)ccc32)c[nH]1)C(C)C [Elbasvir],100%
15,CCNC(=O)CCC/C=C\C[C@@H]1[C@@H](/C=C/[C@@H](O)CCc2ccccc2)[C@H](O)C[C@@H]1O [Bimatoprost],89%
16,COC(=O)C1=C(C)NC(C)=C(C(=O)OC2CCCN(Cc3ccccc3)C2)C1c1cccc([N+](=O)[O-])c1 (stereo unspecified) [Benidipine HCl],86.7%
17,CN[C@H]1C(=O)N[C@@H]2Cc3ccc(cc3)Oc3cc4cc(c3O[C@@H]3O[C@H](C(=O)O)[C@@H](O)[C@H](O)[C@H]3NC(=O)CCCCCCCCC(C)C)Oc3ccc(cc3Cl)[C@@H](O)[C@@H]3NC(=O)[C@H](NC(=O)[C@@H]4NC(=O)[C@@H](NC2=O)c2cc(cc(O)c2Cl)Oc2cc1ccc2O)c1ccc(O)c(c1)-c1c(O[C@H]2O[C@H](CO)[C@@H](O)[C@H](O)[C@@H]2O)cc(O)cc1[C@@H](C(=O)NCCCN(C)C)NC3=O [Dalbavancin],90.5%
18,CC1(C)S[C@@H]2[C@H](NC(=O)[C@H](C(=O)O)c3ccsc3)C(=O)N2[C@H]1C(=O)O [Ticarcillin sodium],87.8%
19,CN[C@@H]1[C@@H](O)[C@@H](O[C@@H]2[C@@H](O)[C@H](O[C@H]3OC(CN)=CC[C@H]3N)[C@@H](N)C[C@H]2N)OC[C@]1(C)O [Sisomicin sulfate],59.9%

# Source: the supplement of paper PMC9744312
